The values below come from doi:10.1101/2025.01.31.25321508.

Sequences of proteins named here, by UniProt entry; tags and fusion partners are left off.
UniProt Q60749: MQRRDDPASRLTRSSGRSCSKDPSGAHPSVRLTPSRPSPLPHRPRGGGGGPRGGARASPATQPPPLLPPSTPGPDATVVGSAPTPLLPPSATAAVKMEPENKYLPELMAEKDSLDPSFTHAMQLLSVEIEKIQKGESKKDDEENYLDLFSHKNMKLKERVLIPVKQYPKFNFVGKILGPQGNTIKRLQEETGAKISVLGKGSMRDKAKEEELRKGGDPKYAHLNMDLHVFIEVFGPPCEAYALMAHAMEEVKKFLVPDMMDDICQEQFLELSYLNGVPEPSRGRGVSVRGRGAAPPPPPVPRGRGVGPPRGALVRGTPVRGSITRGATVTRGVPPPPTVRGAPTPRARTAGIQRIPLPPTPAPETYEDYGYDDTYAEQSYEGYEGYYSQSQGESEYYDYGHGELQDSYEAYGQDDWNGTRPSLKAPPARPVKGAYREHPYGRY
UniProt Q91V33: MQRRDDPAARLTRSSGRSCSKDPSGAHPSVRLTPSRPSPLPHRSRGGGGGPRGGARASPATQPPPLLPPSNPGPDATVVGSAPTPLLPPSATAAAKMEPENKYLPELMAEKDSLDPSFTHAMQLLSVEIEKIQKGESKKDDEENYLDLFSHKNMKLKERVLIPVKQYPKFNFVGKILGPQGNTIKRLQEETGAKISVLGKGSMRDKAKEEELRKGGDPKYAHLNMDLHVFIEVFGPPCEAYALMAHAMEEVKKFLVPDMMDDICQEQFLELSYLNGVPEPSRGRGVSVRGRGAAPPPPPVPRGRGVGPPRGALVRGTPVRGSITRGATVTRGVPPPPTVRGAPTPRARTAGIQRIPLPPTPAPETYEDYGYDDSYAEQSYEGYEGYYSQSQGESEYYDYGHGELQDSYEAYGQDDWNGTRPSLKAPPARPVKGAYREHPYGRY
UniProt P42227: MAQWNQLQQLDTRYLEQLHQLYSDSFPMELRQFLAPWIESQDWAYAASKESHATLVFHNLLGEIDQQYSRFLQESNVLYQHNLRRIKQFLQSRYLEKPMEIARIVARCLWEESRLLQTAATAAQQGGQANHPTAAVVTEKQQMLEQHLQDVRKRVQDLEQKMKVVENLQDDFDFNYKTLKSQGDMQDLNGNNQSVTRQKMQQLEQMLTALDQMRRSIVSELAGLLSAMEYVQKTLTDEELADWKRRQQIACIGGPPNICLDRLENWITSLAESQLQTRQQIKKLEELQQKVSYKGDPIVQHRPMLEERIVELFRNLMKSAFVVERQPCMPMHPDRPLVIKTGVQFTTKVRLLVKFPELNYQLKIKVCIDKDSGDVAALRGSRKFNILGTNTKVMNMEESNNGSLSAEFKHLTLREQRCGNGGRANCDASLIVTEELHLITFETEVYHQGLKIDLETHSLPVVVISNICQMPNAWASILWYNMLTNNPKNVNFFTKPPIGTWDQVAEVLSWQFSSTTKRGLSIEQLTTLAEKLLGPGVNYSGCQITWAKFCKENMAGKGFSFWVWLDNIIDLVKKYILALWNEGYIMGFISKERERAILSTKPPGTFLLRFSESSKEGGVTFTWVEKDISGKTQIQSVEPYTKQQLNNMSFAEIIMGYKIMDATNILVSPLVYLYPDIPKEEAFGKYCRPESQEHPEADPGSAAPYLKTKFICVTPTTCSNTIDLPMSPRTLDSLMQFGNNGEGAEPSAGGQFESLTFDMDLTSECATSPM
UniProt P52631: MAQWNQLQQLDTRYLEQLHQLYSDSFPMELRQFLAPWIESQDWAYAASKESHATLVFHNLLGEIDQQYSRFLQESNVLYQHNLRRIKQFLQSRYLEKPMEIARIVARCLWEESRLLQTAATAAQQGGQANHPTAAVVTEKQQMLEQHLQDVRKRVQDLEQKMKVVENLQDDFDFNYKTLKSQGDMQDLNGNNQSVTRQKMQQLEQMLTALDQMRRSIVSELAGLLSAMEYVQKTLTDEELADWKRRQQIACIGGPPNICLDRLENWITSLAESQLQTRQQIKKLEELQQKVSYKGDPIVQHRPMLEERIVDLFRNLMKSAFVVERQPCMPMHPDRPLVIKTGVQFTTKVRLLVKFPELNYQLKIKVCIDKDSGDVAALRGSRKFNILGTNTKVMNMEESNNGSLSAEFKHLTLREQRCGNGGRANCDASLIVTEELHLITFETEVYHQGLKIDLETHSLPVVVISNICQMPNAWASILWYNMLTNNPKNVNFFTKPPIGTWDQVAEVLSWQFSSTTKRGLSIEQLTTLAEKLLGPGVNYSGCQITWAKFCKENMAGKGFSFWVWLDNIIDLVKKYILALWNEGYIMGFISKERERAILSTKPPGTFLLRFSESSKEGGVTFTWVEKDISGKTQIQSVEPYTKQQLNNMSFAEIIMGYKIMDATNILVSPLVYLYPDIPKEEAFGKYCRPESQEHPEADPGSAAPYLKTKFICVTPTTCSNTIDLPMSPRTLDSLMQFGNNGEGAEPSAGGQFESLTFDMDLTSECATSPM

No constants are given. Whether binding was seen depends on the method and setting. Binding seen in cells or lysates may run through a third protein. Some results given as binding are weak or reduced against the parent protein; the word gives no strength.

In assay [1] the target is Flag-Sam68 (Src-associated in mitosis 68 kDa) (UniProt Q60749). Nature of the assay: co-IP.
Assay [2] has as its target endogenous Sam68 (rat (endogenous in NRVMs)) (UniProt Q91V33). Nature of the assay: co-IP.

For STAT3 (from UniProt P42227 1-770), the binding entry in assay [1] is “binds”.
For the substance STAT3 (from UniProt P52631 1-770), in assay [2], the binding result is “binds”.
